Hit rate of the full screen: of about 580,000 compounds, about 6,100 (1.1%) were called active. The inconclusive results got no clear call from the source; some entries with a clear call stand among them for comparison. Calls come from the whole dose curve; as a rule, active = well fitted inhibition curve with a large enough effect; inconclusive = small, poorly fitted or top-dose-only effect, or another doubt; inactive = no such curve, though single readings can be large or run the other way. Potencies beside an inconclusive call are fits to weak or partial responses and may not hold up.
Each molecule was assayed against Polyunsaturated fatty acid lipoxygenase ALOX12 (Homo sapiens) (UniProt P18054) (assay: Primary qHTS assay for inhibitors of human arachidonate 12S-lipoxygenase (ALOX12): Round 2). Details: purified 12hLO, xylenol orange hydroperoxide absorbance; series mostly up to 108 µM.
In short: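 Hydroperoxide product was detected by ferrous iron/xylenol orange as the 573 to 405 nm absorbance ratio. Arachidonic acid at 40 uM (final) was turned over for 30 min at room temperature by 150 nM human 12hLO, pH 7.0 Hepes buffer, after 15 min compound preincubation.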
Potency is the fitted concentration of half-maximal effect.

Protein sequences, listed by entry. Tags and fused reporters are not part of them. Lines headed by an entry give the natural chain unless they say otherwise; changes in a name come on top.
UniProt P18054: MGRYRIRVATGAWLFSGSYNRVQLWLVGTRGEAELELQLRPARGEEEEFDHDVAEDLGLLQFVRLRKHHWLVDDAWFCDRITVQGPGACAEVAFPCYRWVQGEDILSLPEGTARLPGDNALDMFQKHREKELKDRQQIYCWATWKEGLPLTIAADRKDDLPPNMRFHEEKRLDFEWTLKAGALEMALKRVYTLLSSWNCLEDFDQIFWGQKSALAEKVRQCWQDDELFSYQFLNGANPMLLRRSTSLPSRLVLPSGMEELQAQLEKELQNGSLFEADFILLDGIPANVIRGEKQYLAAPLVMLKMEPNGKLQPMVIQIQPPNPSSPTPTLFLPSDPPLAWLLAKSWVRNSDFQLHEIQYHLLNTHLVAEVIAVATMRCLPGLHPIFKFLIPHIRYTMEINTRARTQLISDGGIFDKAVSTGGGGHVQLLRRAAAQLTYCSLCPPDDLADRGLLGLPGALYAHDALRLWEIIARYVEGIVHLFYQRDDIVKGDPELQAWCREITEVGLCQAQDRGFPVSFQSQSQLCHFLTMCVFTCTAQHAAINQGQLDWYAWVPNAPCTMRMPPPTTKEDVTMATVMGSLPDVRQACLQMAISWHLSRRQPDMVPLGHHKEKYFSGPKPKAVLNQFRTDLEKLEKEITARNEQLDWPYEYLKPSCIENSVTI

| SMILES | Potency |
| --- | --- |
| CC(O)CN(Cc1ccc(Cl)cc1)CC(C)O (configuration not stated) | inconclusive: 0.562 µM [inhibitor, full curve, poor fit] |
| C=C(Br)CN1CCCC1 | inconclusive: 28.2 µM [inhibitor, partial curve] |
| CCc1nc2c(c(-c3ccc(Cl)cc3)n1)CCN(Cc1ccc(C#N)cc1)CC2 | inconclusive: 6.31 µM [inhibitor, full curve, poor fit] |
| COc1cc(C(=O)O)nc2ccccc12 | inconclusive: 0.282 µM [inhibitor, full curve, poor fit] |
| CC(=O)N1CC2(CCN(c3nc(C)cc(C(=O)O)n3)CC2)CC1C(=O)O (configuration not stated) | inactive |
| CC(=O)Nc1c(-c2ccccc2)c(C)nn1-c1ccc(C(=O)NCc2ccccc2)cc1 | inactive |
| C/C(=N/NC(=O)c1cc(-c2ccc(Cl)s2)[nH]n1)c1ccco1 | inconclusive: 10 µM [inhibitor, partial curve, poor fit] |
| Cc1ccc(N2C(=O)c3ccccc3C2Nc2cccnc2)nc1 (configuration not stated) | inconclusive: 31.6 µM [inhibitor, partial curve, poor fit] |
| O=C1CC(c2ccc3c(c2)OCO3)c2ncn(-c3cccc(C(F)(F)F)c3)c2N1 (configuration not stated) | inconclusive: 0.794 µM [inhibitor, full curve] |
| C/C(=N\NS(=O)(=O)c1ccc(Cl)cc1)c1ccc(O)cc1 | inconclusive: 17.8 µM [inhibitor, full curve] |
| O=C(O)CS(=O)(=O)CC(=O)O | inactive |
| CC(C)CNc1ccc2nnc(-c3ccc(F)cn3)n2n1 | inactive |
| C=CCn1c(COc2cccc(C)c2C)nnc1SCC(=O)N1CCN(c2ccccc2)CC1 | inconclusive: 2.82 µM [inhibitor, full curve, poor fit] |
| Cc1ccc(S(=O)(=O)N2C[C@H]3C(=O)C[C@@H](c4cccc(Cl)c4)N(S(=O)(=O)c4ccc(C)cc4)[C@H]3C[C@H]2c2ccc(Cl)cc2)cc1 | inconclusive: 31.6 µM [inhibitor, single point] |
| CCOP(=O)(OCC)c1cccc(P(=O)(c2ccccc2)c2ccccc2)c1O | inconclusive: 112 µM [inhibitor, single point] |
| Cc1nc(C)c(C(=O)N2CCC[C@H](n3c(=O)n(Cc4ccccc4)c4cccnc43)C2)s1 | inactive |
| Cc1nnc(SCC(=O)Nc2nccs2)s1 | inconclusive: 56.2 µM [inhibitor, partial curve, poor fit] |
| O=C1C(=O)N(C2CCS(=O)(=O)C2)C(c2cccc(O)c2)/C1=C(/O)c1ccc(Cl)cc1 (configuration not stated) | inconclusive: 50.1 µM [inhibitor, partial curve, poor fit] |
| Cc1sc(/N=C/c2ccccc2Cl)c(C#N)c1C | inactive |
| COC(=O)N1CCCC2(C1)C(=NC1CCCC1)NC(=O)N2c1cc(F)cc(F)c1 (configuration not stated) | inactive |
| O=C(Nc1ccc(Oc2ccccc2)cc1)N[C@H]1CO[C@H]2[C@@H]1OC[C@@H]2n1nnnc1Oc1ccc(-n2cncn2)cc1 | inconclusive: 44.7 µM [inhibitor, partial curve] |
| CCCCOc1ccc(NC(=O)CN2CCN(C(=O)OCC)CC2)cc1 | inconclusive: 0.0891 µM [inhibitor, full curve, poor fit] |
| O=C(/C=C/c1ccccc1)Nc1cccc(C(=O)O)c1 | inactive |

| SMILES | Potency |
| --- | --- |
| Clc1cccc(OCCCCN2CCCCC2)c1 | inconclusive: 2.82 µM [inhibitor, full curve, poor fit] |
| CN(C)C(CNc1ccc(S(C)(=O)=O)cc1[N+](=O)[O-])c1ccccc1 (configuration not stated) | inactive |
| COc1ccc(CCNC(=O)C2CCCN(c3ccc4nnc(C(F)(F)F)n4n3)C2)cc1 (configuration not stated) | inconclusive: 89.1 µM [inhibitor, partial curve, poor fit] |
| CCCCN(Cc1ccccc1)c1ccc(NS(=O)(=O)c2ccc(C(C)(C)C)cc2)cc1C(=O)O | active: 14.1 µM |
| O=C(C1CCCC1)N1CCc2nc(-c3ccccc3)nc(-c3ccc(Cl)cc3)c2C1 | inconclusive: 89.1 µM [inhibitor, single point] |
| COc1cccc(CC(=O)NCc2nnc3cc(-c4nc(C5CC5)no4)ccn23)c1 | inactive |
| O=C(Nc1ccc(F)cc1)C(c1ccccc1)N1CCN(CC(=O)N2CCCC2)CC1 (configuration not stated) | inconclusive: 112 µM [inhibitor, single point] |
| CNc1cncc(-c2ccc(O)cc2)n1 | inconclusive: 89.1 µM [inhibitor, single point] |
| CC(=O)N1CCCN(Cc2ccc3c(c2)OCO3)c2ccccc21 | inconclusive: 39.8 µM [inhibitor, single point] |
| Cc1cc(C)cc(NC(N)=S)c1 | inconclusive: 50.1 µM [inhibitor, single point] |
| CCCN(CC#N)CC(=O)NC(C)(C#N)C(C)C (configuration not stated) | inactive |
| N#Cc1c(N2CCN(C(=O)C(=O)N3CCCC3)CC2)nc(-c2ccco2)c2c1CCCC2 | inconclusive: 44.7 µM [inhibitor, partial curve, poor fit] |
| COc1ccc(C2c3ccc4ccccc4c3Oc3ncn(CCN4CCOCC4)c(=N)c32)cc1 (configuration not stated) | inconclusive: 100 µM [inhibitor, partial curve, poor fit] |
| O=c1cc(-c2nn[nH]n2)[nH]c(=O)[nH]1 | inconclusive: 0.199 µM [inhibitor, full curve, poor fit] |
| Cc1ccc(-c2cc(C(=O)N/N=C/c3ccc([N+](=O)[O-])o3)c3ccccc3n2)o1 | inconclusive: 5.62 µM [inhibitor, partial curve, poor fit] |
| O=C(c1cc(F)ccc1Cl)N1C[C@@H](CO)[C@H](c2ccccn2)C1 | inactive |
| Cc1nn(-c2ccc(F)cc2)c(C)c1CNC(=O)C1NCCc2[nH]cnc21 (configuration not stated) | inconclusive: 4.47 µM [inhibitor, full curve, poor fit] |
| CN1CCC(=O)N(CCOc2ccccc2)CC1 | inconclusive: 44.7 µM [inhibitor, partial curve, poor fit] |
| CCC1c2nccn2CCCN1C(=O)CCc1c(C)noc1C (configuration not stated) | inactive |
| Cc1csc(CNc2ncnc3ccc(-c4ccoc4)cc23)c1 | inactive |
| CCc1ccccc1NC(=O)/C(=C/c1ccco1)c1ccccc1 | inconclusive: 44.7 µM [inhibitor, partial curve, poor fit] |
| CC(=O)c1c(C)oc2ccc(NS(=O)(=O)c3ccc(C(C)C)cc3)cc12 | inactive |
| Cc1ccccc1NC(=O)CN1CCC(NC(=O)Nc2ccccc2)CC1 | inconclusive: 126 µM [inhibitor, single point] |

| SMILES | Potency |
| --- | --- |
| O=S(=O)(NC(=S)c1ccccc1)c1ccc(Cl)cc1 | inconclusive: 79.4 µM [inhibitor, partial curve, poor fit] |
| Cc1cccn2c(=O)c(/C=C(\C#N)C(N)=O)c(N3CCN(c4ccccc4)CC3)nc12 | inconclusive: 63.1 µM [inhibitor, partial curve, poor fit] |
| Cc1cn2c(=O)cc(COc3cccc(NC(=O)c4ccccc4Cl)c3)nc2s1 | inactive |
| O=S(=O)(c1ccccc1)N1N=C(c2ccc(O)cc2)CC1c1ccco1 (configuration not stated) | inconclusive: 70.8 µM [inhibitor, partial curve, poor fit] |
| Cc1ccc(C(=O)C(C)Sc2nnnn2C)cc1 (configuration not stated) | inconclusive: 56.2 µM [inhibitor, single point] |
| COCC1CN(C(=O)CCc2cccc(OC)c2)CC12CCNCC2 (configuration not stated) | inconclusive: 39.8 µM [inhibitor, single point] |
| CCc1ccccc1NC(=O)CN(C)C(=O)c1cc(=O)c2cc(C)ccc2o1 | inactive |
| CC(C)(C)c1c(Cl)c(O)c(-c2ccccc2)c(=O)n1-c1ccccc1 | inconclusive: 50.1 µM [inhibitor, partial curve, poor fit] |
| COc1ccc(C2=NN3C(C2)c2ccccc2OC3c2cccs2)cc1 (configuration not stated) | inconclusive: 28.2 µM [inhibitor, single point] |
| O=C(N=Nc1c(O)[nH]c2ccc([N+](=O)[O-])cc12)c1ccccc1Cl | inconclusive: 56.2 µM [inhibitor, partial curve, poor fit] |
| O=C(Nc1ccc(Cl)c(C(F)(F)F)c1)C(Cl)c1ccccc1 (configuration not stated) | inconclusive: 31.6 µM [inhibitor, single point] |
| CC(C)C1C(=O)N(Cc2cn(Cc3ccco3)nn2)CCS(=O)(=O)N1Cc1ccc(-c2ccc(Cl)cc2)cc1 (configuration not stated) | inconclusive: 44.7 µM [inhibitor, partial curve, poor fit] |
| O=C(NNS(=O)(=O)c1ccccc1)c1ccccc1-n1cccc1 | inconclusive: 11.2 µM [inhibitor, partial curve, poor fit] |
| O=[N+]([O-])c1ccc(Cl)cc1N1CCOCC1 | inactive |
| Nc1nccnc1C(=O)NCc1ncc(-c2ccccc2)o1 | inactive |
| O=C(NCC(c1ccco1)N1CCN(c2ccc(F)cc2)CC1)C(=O)NC1CCCCC1 (configuration not stated) | inconclusive: 31.6 µM [inhibitor, partial curve] |
| Cc1cccc2c(=O)c(-c3ccccc3)c(NC(=O)c3cccc([N+](=O)[O-])c3)oc12 | inactive |
| O=C(CSc1nc2ccccc2c(=O)[nH]1)Nc1ccccc1 | inactive |
| O=C(N/N=C/c1cc(Br)cc(Br)c1O)c1ccncc1 | inconclusive: 3.55 µM [inhibitor, full curve, poor fit] |
| O=C(COc1ccccc1C(=O)Nc1ccccc1)NC1CCCC1 | inconclusive: 89.1 µM [inhibitor, partial curve, poor fit] |
| O=C(Cn1c(=O)cnc2ccccc21)Nc1cccc(S(=O)(=O)N2CCCCC2)c1 | inconclusive: 79.4 µM [inhibitor, partial curve, poor fit] |

Some of the entries so far, tab-delimited:
SMILES	Potency
CC(=O)c1c(C)oc2ccc(NS(=O)(=O)c3ccc(C(C)C)cc3)cc12	inactive
Cc1ccccc1NC(=O)CN1CCC(NC(=O)Nc2ccccc2)CC1	inconclusive: 126 µM [inhibitor, single point]
O=S(=O)(NC(=S)c1ccccc1)c1ccc(Cl)cc1	inconclusive: 79.4 µM [inhibitor, partial curve, poor fit]
Cc1cccn2c(=O)c(/C=C(\C#N)C(N)=O)c(N3CCN(c4ccccc4)CC3)nc12	inconclusive: 63.1 µM [inhibitor, partial curve, poor fit]
Cc1cn2c(=O)cc(COc3cccc(NC(=O)c4ccccc4Cl)c3)nc2s1	inactive
